# The list shows a part of the results. The calls rarely recur for the same compound in another form.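 In K562 cells expressing nanoluciferase-fused kinases, luminescence was recorded at 4 h intervals between 2 and 18 h, normalized as percent of control with DMSO at 100% and a positive control at 0%. A significant (2 sigma) signal drop marks a time point as decreased. The authors' rule for a hit is not shown and takes in more than the number of time points.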
# By UniProt entry, the sequences of proteins in these tests, tags left out.
# UniProt Q15418, whole entry: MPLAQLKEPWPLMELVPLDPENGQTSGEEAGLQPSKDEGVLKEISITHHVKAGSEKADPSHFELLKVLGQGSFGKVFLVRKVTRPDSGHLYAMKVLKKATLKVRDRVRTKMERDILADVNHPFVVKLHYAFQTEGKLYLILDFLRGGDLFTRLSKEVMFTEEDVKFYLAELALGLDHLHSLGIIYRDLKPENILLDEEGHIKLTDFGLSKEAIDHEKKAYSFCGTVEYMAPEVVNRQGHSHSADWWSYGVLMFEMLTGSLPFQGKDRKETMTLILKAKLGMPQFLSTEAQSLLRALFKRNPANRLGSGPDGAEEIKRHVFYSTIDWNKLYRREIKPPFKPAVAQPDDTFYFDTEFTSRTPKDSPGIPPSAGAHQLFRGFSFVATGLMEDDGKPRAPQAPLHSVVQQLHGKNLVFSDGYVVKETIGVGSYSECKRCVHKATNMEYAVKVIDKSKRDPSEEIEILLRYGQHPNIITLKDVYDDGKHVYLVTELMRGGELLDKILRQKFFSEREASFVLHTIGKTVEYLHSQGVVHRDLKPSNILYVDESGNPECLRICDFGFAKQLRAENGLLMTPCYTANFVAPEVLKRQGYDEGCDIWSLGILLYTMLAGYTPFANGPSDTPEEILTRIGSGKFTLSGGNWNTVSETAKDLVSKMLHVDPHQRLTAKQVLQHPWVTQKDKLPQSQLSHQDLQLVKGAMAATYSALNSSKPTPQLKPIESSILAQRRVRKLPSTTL
# UniProt Q9NYA1, whole entry: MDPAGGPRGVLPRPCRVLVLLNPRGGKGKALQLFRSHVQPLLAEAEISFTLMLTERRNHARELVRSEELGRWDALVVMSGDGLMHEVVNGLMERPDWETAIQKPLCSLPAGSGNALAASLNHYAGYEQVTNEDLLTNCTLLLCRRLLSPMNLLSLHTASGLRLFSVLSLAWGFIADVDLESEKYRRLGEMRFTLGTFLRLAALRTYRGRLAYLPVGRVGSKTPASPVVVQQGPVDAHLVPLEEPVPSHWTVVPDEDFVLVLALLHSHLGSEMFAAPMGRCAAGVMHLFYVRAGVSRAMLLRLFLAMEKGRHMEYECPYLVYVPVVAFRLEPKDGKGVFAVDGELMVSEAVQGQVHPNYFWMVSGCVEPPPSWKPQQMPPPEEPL
# Biological target: RPS6KA1 (UniProt Q15418)
# Assay: number of time points (of 5) at which kinase-Nluc abundance scored as decreased, DMSO-normalised (count); higher = more persistent destabilization
# Conditions: K562; 2-18 h
row,Structure (SMILES),number of time points
1,C=C1C(=O)[C@@]23[C@H](O)C[C@@H]4C(C)(C)C(=O)CC[C@@]4(C)[C@@H]2CC[C@@H]1[C@H]3O [Glaucocalyxin A] (2.5 µM),0
2,C[C@@H]1O[C@@H](Oc2cc(O)c3c(=O)c(O[C@@H]4O[C@@H](C)[C@H](O)[C@@H](O)[C@H]4O)c(-c4ccc(O)cc4)oc3c2)[C@H](O)[C@H](O)[C@H]1O [Kaempferitrin] (10 µM),0
3,Cc1c(C(=O)Nc2ccc(Oc3ccnc4[nH]cc(-c5ccccc5)c34)c(F)c2)c(=O)n(-c2ccc(F)cc2)n1C (10 µM),0
4,c1nc2c(NC3CCCCC3)nc(Nc3ccc(N4CCOCC4)cc3)nc2[nH]1 [Reversine] (10 µM),0
5,CN1CCN(c2ccc(Nc3ncc4cc(C#N)c(=O)n(C5CCCC5)c4n3)cc2)CC1 (10 µM),0
6,NC[C@@](O)(c1ccc(Cl)cc1)c1ccc(-c2cn[nH]c2)cc1 (10 µM),0
7,Cc1ccc(-n2nc(C(C)(C)C)cc2NC(=O)Nc2ccc(OCCN3CCOCC3)cc2)cc1 (10 µM),0
8,c1ccc(Cn2c(-c3ccc(OC[C@H](C4CCNCC4)n4c(-c5ccccc5)nc5ccccc54)cc3)nc3ccccc32)cc1 [Deltarasin] (2.5 µM),0
9,C=CC(=O)N1CC[C@@H](Oc2nc(Nc3ccc(N4CCC(N5CCN(C)CC5)CC4)cc3)c(C(N)=O)nc2CC)C1 [Naquotinib (mesylate)] (2.5 µM),0
10,Cc1cc(O)c2c(c1)C(=O)c1cccc(O)c1C2=O [Chrysophanol] (2 µM),0
11,Cc1cc(C(=O)NC(C)(C)C)cc(C#Cc2ccc3c4c(oc3c2)C(C)(C)c2cc(NS(C)(=O)=O)ccc2C4=O)n1 (10 µM),0
12,Nc1nc(NCCNc2ncc(-n3ccnc3)c(-c3ccc(Cl)cc3Cl)n2)ccc1[N+](=O)[O-] (2.5 µM),0
13,Cn1c(CNc2cccc(C(=O)NCc3ccccc3C(F)(F)F)c2)nnc1-c1ccncc1 (10 µM),0

# Biological target: SPHK1 (UniProt Q9NYA1)
# Assay: as above
# Conditions: K562; 2-18 h
row,Structure (SMILES),number of time points
1,CC(C)n1ncnc1-c1cn2c(n1)-c1ccc(O[C@@H](C)C(N)=O)cc1OCC2 (10 µM),0
2,O=C(c1cccc(Cl)c1F)N1CCN(Cc2cccc(Nc3nccs3)n2)CC1 (2.5 µM),0
3,COc1cc(F)ccc1-c1ncnc(Nc2cccc(C[S@](C)(=N)=O)c2)n1 [Atuveciclib] (2.5 µM),0
4,Cc1cnc(NC(=O)c2cc(Oc3cnc(C(=O)N(C)C)nc3)c3cc(C)oc3c2)cn1 (10 µM),0
5,CC1=C(C(=O)Nc2cc3cn[nH]c3cc2F)C(c2ccc(C(F)(F)F)cc2)CC(=O)N1 (stereo not given) (10 µM),0
6,NCC1CCC(CNc2nc(NCc3ccccc3OC(F)(F)F)ncc2[N+](=O)[O-])CC1 (stereo not given) [PKC-theta inhibitor] (10 µM),0
7,O=C1Nc2ccc(I)cc2/C1=C/c1cc(Br)c(O)c(Br)c1 (10 µM),4
8,COc1cc(-c2oc3cc(O)cc(O)c3c(=O)c2O)ccc1O [Isorhamnetin] (10 µM),0
9,O=C1OC(/C=C/c2ccccc2)=NC/1=C\c1cccnc1 (10 µM),0
10,Cn1ncc(NC(=O)c2nc(-c3c(F)cccc3F)sc2N)c1N1CC[C@@H](N)[C@H](F)CC1 (10 µM),0
11,CNC(=O)CNc1cnc2ccc(-c3ccc(OC)c(OC)c3)cc2n1 (10 µM),0
12,CO[C@H]1C[C@@H]2CC[C@@H](C)[C@@](O)(O2)C(=O)C(=O)N2CCCC[C@H]2C(=O)O[C@H]([C@H](C)C[C@@H]2CC[C@@H](OCCO)[C@H](OC)C2)CC(=O)[C@H](C)/C=C(\C)[C@@H](O)[C@@H](OC)C(=O)[C@H](C)C[C@H](C)/C=C/C=C/C=C/1C [Everolimus] (10 µM),0
13,O=C(Nc1cccnc1)c1cc(-c2ccnc(F)c2)ccc1OCc1ccccc1 (10 µM),0
14,COc1c(O)cc2oc(-c3ccc(O)cc3)cc(=O)c2c1O [Hispidulin] (10 µM),0
15,O=C1CC[C@H](NC(=O)Cc2ccccc2)C(=O)N1 [Antineoplaston A10] (10 µM),0
16,CC(C)Oc1ccc(F)c(-c2cnc(N)c(C(=O)Nc3cnccc3N3CCC[C@@H](C(=O)O)C3)n2)c1 (2 µM),0
17,Nc1nc2c(nc(Br)n2[C@@H]2O[C@@H]3COP(=O)(O)O[C@H]3[C@H]2O)c(=O)[nH]1 [8-Bromo-cGMP (sodium)] (10 µM),0

# As entered above:
# number of time points with CC1=C(C(=O)Nc2cc3cn[nH]c3cc2F)C(c2ccc(C(F)(F)F)cc2)CC(=O)N1 (stereo not given) (10 µM) is entered as 0
# number of time points with COc1cc(-c2oc3cc(O)cc(O)c3c(=O)c2O)ccc1O [Isorhamnetin] (10 µM) is entered as 0
